Source: article doi:10.1101/192500 (bioRxiv, 2018)
Changes are numbered by the printed parent chain. Results are given in words; binding and its absence hold for the method and conditions named. Binding seen in cells or lysates may run through a third protein. Some results given as binding are weak or reduced against the parent protein; the word gives no strength. Tags and fused reporters may be left off the sequences shown.

Legend:
Experiment in all cases: pull-down
[1] = molecular target: T1, MlaA L1 mutant (Y^147VQL→4A)-His (E. coli) (UniProt P76506)
T1 sequence: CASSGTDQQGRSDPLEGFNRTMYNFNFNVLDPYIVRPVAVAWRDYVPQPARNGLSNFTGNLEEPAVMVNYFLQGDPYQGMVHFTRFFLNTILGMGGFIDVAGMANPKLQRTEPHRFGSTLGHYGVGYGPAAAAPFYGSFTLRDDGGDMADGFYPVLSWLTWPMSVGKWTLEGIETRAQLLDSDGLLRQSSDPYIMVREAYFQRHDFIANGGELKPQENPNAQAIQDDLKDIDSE

[2] = molecular target: T2, MlaA_(3D3R)-His (E. coli) (UniProt P76506)
T2 sequence: T1 sequence with A130Y, A131V, A132Q, A133L, D143R, D144R, D147R

[3] = molecular target: T3, MlaA 3G3P mutant (G^141VGYG→P^141VPYP)-His (E. coli) (UniProt P76506)
T3 sequence: T1 sequence with G124P, G126P, G128P, A130Y, A131V, A132Q, A133L

[4] = molecular target: T4, MlaA-His (wild type, from pET23/42) (E. coli) (UniProt P76506)
T4 sequence: T1 sequence with A130Y, A131V, A132Q, A133L

[5] = molecular target: T5, MlaA 3G3P/3D3R combination mutant-His (E. coli) (UniProt P76506)
T5 sequence: T1 sequence with G124P, G126P, G128P, A130Y, A131V, A132Q, A133L, D143R, D144R, D147R

[6] = molecular target: T6, MlaA L2 mutant (F^152YGSF→5A)-His (E. coli) (UniProt P76506)
T6 sequence: T1 sequence with A130Y, A131V, A132Q, A133L, F135A, Y136A, G137A, S138A, F139A

Measured: binding

B1: OmpC (wild type, from the chromosomal locus) (protein, UniProt P06996 22-367)
chain: AEVYNKDGNKLDLYGKVDGLHYFSDNKDVDGDQTYMRLGFKGETQVTDQLTGYGQWEYQIQGNSAENENNSWTRVAFAGLKFQDVGSFDYGRNYGVVYDVTSWTDVLPEFGGDTYGSDNFMQQRGNGFATYRNTDFFGLVDGLNFAVQYQGKNGNPSGEGFTSGVTNNGRDALRQNGDGVGGSITYDYEGFGIGGAISSSKRTDAQNTAAYIGNGDRAETYTGGLKYDANNIYLAAQYTQTYNATRVGSLGWANKAQNFEAVAQYQFDFGLRPSLAYLQSKGKNLGRGYDDEDILKYVDVGATYYFNKNMSTYVDYKINLLDDNQFTRDAGINTDNIVALGLVYQF
binds: all assays above
